Measurements published in publication doi:10.1101/2023.11.28.569009.
These are yes or no findings as the source states them, for the method shown. In cells and extracts the contact can be indirect. Some results given as binding are weak or reduced against the parent protein; the word gives no strength. For part of these data: Tags and fused reporters may be left off the sequences shown.

Experiments:
[1] = biological target: T1, low-density lipoprotein receptor-related protein 10 (LRP10), wild type, overexpressed untagged (human) (UniProt Q7Z4F1); assay: co-IP
T1 sequence: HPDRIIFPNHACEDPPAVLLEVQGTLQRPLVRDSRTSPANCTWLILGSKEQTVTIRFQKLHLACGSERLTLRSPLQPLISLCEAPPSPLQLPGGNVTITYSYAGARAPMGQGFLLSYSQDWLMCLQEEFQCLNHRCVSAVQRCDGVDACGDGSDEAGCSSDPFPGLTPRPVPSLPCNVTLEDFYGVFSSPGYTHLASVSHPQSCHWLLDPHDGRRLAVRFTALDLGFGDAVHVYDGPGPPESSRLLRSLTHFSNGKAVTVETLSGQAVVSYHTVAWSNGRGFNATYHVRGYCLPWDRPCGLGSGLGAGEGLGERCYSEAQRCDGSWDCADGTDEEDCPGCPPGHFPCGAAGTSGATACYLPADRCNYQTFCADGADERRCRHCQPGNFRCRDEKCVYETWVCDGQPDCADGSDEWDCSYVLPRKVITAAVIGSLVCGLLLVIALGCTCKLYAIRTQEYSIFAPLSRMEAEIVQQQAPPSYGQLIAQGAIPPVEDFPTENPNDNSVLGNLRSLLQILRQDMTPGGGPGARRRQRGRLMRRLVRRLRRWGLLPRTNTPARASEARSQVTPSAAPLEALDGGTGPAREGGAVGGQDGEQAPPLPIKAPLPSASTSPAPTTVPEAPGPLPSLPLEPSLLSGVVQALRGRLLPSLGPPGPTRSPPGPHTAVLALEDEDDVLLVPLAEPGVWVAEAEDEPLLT

[2] = biological target: T2, low-density lipoprotein receptor-related protein 10 (LRP10), endogenous in iPSC-derived astrocytes (human (endogenous in iPSC-derived astrocytes)) (UniProt Q7Z4F1); assay: co-IP
T2 sequence: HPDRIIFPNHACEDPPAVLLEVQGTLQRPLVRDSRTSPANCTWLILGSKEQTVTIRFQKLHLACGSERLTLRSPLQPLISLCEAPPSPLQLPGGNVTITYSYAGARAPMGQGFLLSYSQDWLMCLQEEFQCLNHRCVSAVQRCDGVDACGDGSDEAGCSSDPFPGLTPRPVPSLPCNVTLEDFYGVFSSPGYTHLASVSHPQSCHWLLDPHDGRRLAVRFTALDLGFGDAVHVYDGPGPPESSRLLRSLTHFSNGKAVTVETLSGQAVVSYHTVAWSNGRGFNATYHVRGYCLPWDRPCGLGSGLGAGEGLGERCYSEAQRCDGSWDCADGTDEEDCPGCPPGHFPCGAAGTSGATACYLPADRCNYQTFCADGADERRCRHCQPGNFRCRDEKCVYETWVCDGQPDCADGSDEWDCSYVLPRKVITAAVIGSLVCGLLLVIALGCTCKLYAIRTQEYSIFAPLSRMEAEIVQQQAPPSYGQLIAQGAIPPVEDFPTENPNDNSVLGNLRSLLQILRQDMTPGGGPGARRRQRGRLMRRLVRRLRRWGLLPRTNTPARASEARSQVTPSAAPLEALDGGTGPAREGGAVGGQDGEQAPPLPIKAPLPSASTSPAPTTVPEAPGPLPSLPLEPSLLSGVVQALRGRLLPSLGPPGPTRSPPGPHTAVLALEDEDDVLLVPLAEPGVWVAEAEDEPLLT

B1: Nedd4 family-interacting protein 1 (NDFIP1), endogenous in HEK-293T cells (protein, UniProt Q9BT67 1-221)
chain: MALALAALAAVEPACGSRYQQLQNEEESGEPEQAAGDAPPPYSSISAESAAYFDYKDESGFPKPPSYNVATTLPSYDEAERTKAEATIPLVPGRDEDFVGRDDFDDADQLRIGNDGIFMLTFFMAFLFNWIGFFLSFCLTTSAAGRYGAISGFGLSLIKWILIVRFSTYFPGYFDGQYWLWWVFLVLGFLLFLRGFINYAKVRKMPETFSNLPRTRVLFIY
**Q.** B1 was tested. Which binding [1] did it give?
**A.** binds

B2: Nedd4 family-interacting protein 1 (NDFIP1), overexpressed (protein, UniProt Q9BT67 1-221)
chain: MALALAALAAVEPACGSRYQQLQNEEESGEPEQAAGDAPPPYSSISAESAAYFDYKDESGFPKPPSYNVATTLPSYDEAERTKAEATIPLVPGRDEDFVGRDDFDDADQLRIGNDGIFMLTFFMAFLFNWIGFFLSFCLTTSAAGRYGAISGFGLSLIKWILIVRFSTYFPGYFDGQYWLWWVFLVLGFLLFLRGFINYAKVRKMPETFSNLPRTRVLFIY
**Q.** B2 was tested. Which binding [1] did it give?
**A.** binds

B3: Nedd4 family-interacting protein 1 (NDFIP1), endogenous in iPSC-derived astrocytes (protein, UniProt Q9BT67 1-221)
chain: MALALAALAAVEPACGSRYQQLQNEEESGEPEQAAGDAPPPYSSISAESAAYFDYKDESGFPKPPSYNVATTLPSYDEAERTKAEATIPLVPGRDEDFVGRDDFDDADQLRIGNDGIFMLTFFMAFLFNWIGFFLSFCLTTSAAGRYGAISGFGLSLIKWILIVRFSTYFPGYFDGQYWLWWVFLVLGFLLFLRGFINYAKVRKMPETFSNLPRTRVLFIY
**Q.** How did the binding [2] turn out when B3 was run?
**A.** binds
